# Reference: PMC7819943, “Rice protein-binding microarrays: a tool to detect cis-acting elements near promoter regions in rice”
# Chains of the proteins cited; added tags and fusions are not shown.
# UniProt Q0JBA9, entry or part of it: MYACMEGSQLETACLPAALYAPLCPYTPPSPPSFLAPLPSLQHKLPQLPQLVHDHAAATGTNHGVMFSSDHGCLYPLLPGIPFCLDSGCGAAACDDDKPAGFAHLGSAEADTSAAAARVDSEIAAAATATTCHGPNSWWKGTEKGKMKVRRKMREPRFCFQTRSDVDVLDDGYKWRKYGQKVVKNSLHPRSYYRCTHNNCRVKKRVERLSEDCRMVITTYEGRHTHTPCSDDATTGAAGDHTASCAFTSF
# The list shows a part of the results.
# Target: OsWRKY34 (Oryza sativa, UniProt Q0JBA9 1-250)
# Assay: protein-binding microarray (RPBM); PBS, 2% BSA, 51.3 ng/ul salmon testes DNA, 50 uM zinc acetate, 200 nM TF, 25 C, 1 h; high values mean tight binding
# Conditions: protein: recombinant; tags: N-terminal polyhistidine and DsRed monomer fusion (pET32a); label: CyDye5-dUTP incorporated in the synthesized complementary strand; 3' TTTTT single-stranded linker to array surface; dsDNA, one strand shown
# Outline: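 Transcription factors were each fused at the N-terminus to a polyhistidine tag plus DsRed and expressed in E. coli BL21-CodonPlus before Ni–NTA purification. Binding to a double-stranded custom Agilent array was carried out with 200 nM protein at 25 °C for 1 h in PBS, 2% BSA, salmon testes DNA and 50 µM zinc acetate. The binding signal is per-feature fluorescence intensity, in arbitrary units, on an Axon 4000B scanner.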
row,Sequence,binding signal
1,TTCCCGGCGAGTTCTGAAATTAGTTTTTTCATTCGTGTCCCGGAGTCACCTAGTGCAG,9170 fluorescence intensity (a.u.)
2,CTGGTTTTTAATGTTGTTGCTGGGTTATTTCGTTGATTGCCGGAGTCACCTAGTGCAG,8350 fluorescence intensity (a.u.)
3,TATATATATATATATATATATATATATATAGTCACGTCCTCGGAGTCACCTAGTGCAG,13800 fluorescence intensity (a.u.)
4,TGGTGGCGGCGGTGGCAGTGGTGGTGTTGGGATTGGGGTACGGAGTCACCTAGTGCAG,9230 fluorescence intensity (a.u.)
5,CGAGCGATAACCATCTAGCACTCTTTCTTTCTTTCTTGCCCGGAGTCACCTAGTGCAG,10100 fluorescence intensity (a.u.)
6,GGTGATAGGGGATTTGGGTTTTCAGGTCATGCAAGACGTGCGGAGTCACCTAGTGCAG,10100 fluorescence intensity (a.u.)
7,TTACTTTGTGACCATCCGCGACGTCACGCTCACATCATTTCGGAGTCACCTAGTGCAG,9830 fluorescence intensity (a.u.)
8,TGATGCTATAGGCTGATCTTTGGGGTTACGGCTACGTCGACGGAGTCACCTAGTGCAG,8880 fluorescence intensity (a.u.)
9,TAGCTTCGCTTTCCTTCTTTCTCTCTTGTCTAGCTATCTTCGGAGTCACCTAGTGCAG,8220 fluorescence intensity (a.u.)
10,CCTCTGTCGCGTTGCTGCTGGCGGAGCTCCTTGGCTTCTCCGGAGTCACCTAGTGCAG,14100 fluorescence intensity (a.u.)
11,TGGGGCGCGTGGGGTGGCGATCCGTGGGGAGGCCGTTTCGCGGAGTCACCTAGTGCAG,12200 fluorescence intensity (a.u.)
12,TCTTCTCTTGGCTCTGTCATGTCTTGCTGTCGGTAGGGGTCGGAGTCACCTAGTGCAG,8460 fluorescence intensity (a.u.)
13,CATCACAAGCATATATCATATTTTATTTTCATTCCAACCTCGGAGTCACCTAGTGCAG,9230 fluorescence intensity (a.u.)
14,AATTCGCTCATTCGCTGTGCCCTCGAGAAAATATAATAATCGGAGTCACCTAGTGCAG,8230 fluorescence intensity (a.u.)
15,ACCTCCTCGCGTTCGCTCGCTACAGCGCACCACATCCACACGGAGTCACCTAGTGCAG,8790 fluorescence intensity (a.u.)
16,TGTGCCAGAGTCATTTAGCAACTCTAATTTCCTAACGTTTCGGAGTCACCTAGTGCAG,8400 fluorescence intensity (a.u.)
17,AGTTGATTTTGTACTCCTAAAATTTACAGTCATTCTTTACCGGAGTCACCTAGTGCAG,8130 fluorescence intensity (a.u.)
18,ATTCGAGTTTCTTAATATGTTTTTTTTCTTTCTTCAGTTTCGGAGTCACCTAGTGCAG,8850 fluorescence intensity (a.u.)
19,ACCCTCACTATAGTTTCCATGCTTTCTTCATGGTTTGTTTCGGAGTCACCTAGTGCAG,8690 fluorescence intensity (a.u.)
20,CGCGCGCTCTCCCATCCATCCATCATCCAAGTCAACAAGACGGAGTCACCTAGTGCAG,9150 fluorescence intensity (a.u.)
21,CCACTTGCTTTGCTGCTACAGTACTTCCTACTGTTACATACGGAGTCACCTAGTGCAG,9660 fluorescence intensity (a.u.)
22,GGGTTGGTGTAGTGGCAGGGGAGTGACGGTGCGCGGTCCGCGGAGTCACCTAGTGCAG,11000 fluorescence intensity (a.u.)
23,ATGGTCTCACATCTCATACACACATAACGTATTGAAGTTCCGGAGTCACCTAGTGCAG,9010 fluorescence intensity (a.u.)
24,GTGGCATGAGCACCTACGATCAGTTCTTATCGTTATATTACGGAGTCACCTAGTGCAG,8180 fluorescence intensity (a.u.)
25,CTATAGTAAGCTACTGAGTTTCCGTGCCTAACTTTGATCACGGAGTCACCTAGTGCAG,10100 fluorescence intensity (a.u.)
26,TTATTTTCATTTCCACCCTTGCATCATTATTTAGTATTTTCGGAGTCACCTAGTGCAG,9050 fluorescence intensity (a.u.)
27,TTTTGCCTCAGTCCAAACCGCTCCGGTCCGTTAGCTCACTCGGAGTCACCTAGTGCAG,8290 fluorescence intensity (a.u.)

row,Sequence,binding signal
1,TCATTTTCAGTCTGTTTGCACTAATTTTGCTATTTTTATACGGAGTCACCTAGTGCAG,10800 fluorescence intensity (a.u.)
2,CTGGTTTTTGGGGCCGGATTGTGATGAAAGATTGGGATTCCGGAGTCACCTAGTGCAG,8200 fluorescence intensity (a.u.)
3,ATTTATATATTAATAGCTCTCTCATTCTGCGTGCCCTTACCGGAGTCACCTAGTGCAG,11000 fluorescence intensity (a.u.)
4,AGTTTAAGATTAATTTTTAGTGGATTTTTTCGGCGCTCTTCGGAGTCACCTAGTGCAG,8220 fluorescence intensity (a.u.)
5,CACGCACCCTCTTTCCCGTGCTTCGTGTGCCCTTCGATCGCGGAGTCACCTAGTGCAG,9430 fluorescence intensity (a.u.)
6,GTTTATATCTCGCGGTATAGTTTGTGCGACTCTACTAATTCGGAGTCACCTAGTGCAG,10500 fluorescence intensity (a.u.)
7,TGCAGTAACTTTGCAGCAGTCGTTTCACCAGTTACATTCTCGGAGTCACCTAGTGCAG,8180 fluorescence intensity (a.u.)
8,GCTTTTACCGTTTCATGTCACACTTGTGTAGCTGTATTTTCGGAGTCACCTAGTGCAG,10200 fluorescence intensity (a.u.)
9,TCACCACATCCTCCTCCCATCGATGGCCCAAAATGCTATTCGGAGTCACCTAGTGCAG,8240 fluorescence intensity (a.u.)
10,CTGCTTCGGGTTTTTTTTTGCTCTTGCTCCGATCGACTGCCGGAGTCACCTAGTGCAG,9710 fluorescence intensity (a.u.)
11,CACCCACCCACGCACACCGAGACAACCGAACACGTCGAGCCGGAGTCACCTAGTGCAG,9430 fluorescence intensity (a.u.)
12,TTGGTTTTTTTCCGGTCTGACCGCCGGTCTCCTCTTTCCCCGGAGTCACCTAGTGCAG,9860 fluorescence intensity (a.u.)
13,CAACATTTTCCTGTGCTTTGACCAAATTATCCTGTTTATTCGGAGTCACCTAGTGCAG,14900 fluorescence intensity (a.u.)
14,TAAACTCGTTGGACCACTCGACTGTAATTTGTTGTTTTGTCGGAGTCACCTAGTGCAG,8740 fluorescence intensity (a.u.)
15,TTCTTCCATGCTATTATGACACAAAAGCACCCGTTCTTTTCGGAGTCACCTAGTGCAG,8920 fluorescence intensity (a.u.)
16,ATCTGTTACACTGTGGTACCATATCACCTGCAGCAATCAACGGAGTCACCTAGTGCAG,9680 fluorescence intensity (a.u.)
17,GGGATAGTACTTATTACTCCCTCCGTCTCGAGTTTTTTTTCGGAGTCACCTAGTGCAG,8360 fluorescence intensity (a.u.)
18,ATGCTCTATCCGTCCTGGGCCACTTTGCATTTGGAAACTACGGAGTCACCTAGTGCAG,11900 fluorescence intensity (a.u.)
19,CAAACAGAGCACACCTTTTTCCAGGACATTTGTCAATATTCGGAGTCACCTAGTGCAG,9180 fluorescence intensity (a.u.)
20,GGTGTCGTATGGGGTGTTCAGGCACTAATAAAAAAAAATACGGAGTCACCTAGTGCAG,11400 fluorescence intensity (a.u.)
21,CCTGGAAGGAGTCCCCGTTATTGCTTTGCCATGTTTCTTCCGGAGTCACCTAGTGCAG,9120 fluorescence intensity (a.u.)
22,ATCTAGTAGTATTTGCCACCGAATGTTTTTCTGGGATGCTCGGAGTCACCTAGTGCAG,8330 fluorescence intensity (a.u.)
23,AAAATCTCCATCCCAGCCACCTCACAACAAGATCCTCAACCGGAGTCACCTAGTGCAG,9550 fluorescence intensity (a.u.)
24,GAGAAAAGCAGCCACAGATAATGACTAAACTTGCACATCTCGGAGTCACCTAGTGCAG,8200 fluorescence intensity (a.u.)
25,TCCCGTCTCGTCCGTCGTCTCCTCCGCTCCTTGCGCCAAGCGGAGTCACCTAGTGCAG,10200 fluorescence intensity (a.u.)
26,TACCGGTAAATATTCGCTACCGTATTTGTTCCATCTCGTACGGAGTCACCTAGTGCAG,8540 fluorescence intensity (a.u.)
27,CAGTTTGGTTGTTCATTGGTTGGTTCGTGTATCTGACGAACGGAGTCACCTAGTGCAG,13100 fluorescence intensity (a.u.)

# Fetched one by one from above (two):
row,Sequence,binding signal
21,CCTGGAAGGAGTCCCCGTTATTGCTTTGCCATGTTTCTTCCGGAGTCACCTAGTGCAG,9120 fluorescence intensity (a.u.)
27,TTTTGCCTCAGTCCAAACCGCTCCGGTCCGTTAGCTCACTCGGAGTCACCTAGTGCAG,8290 fluorescence intensity (a.u.)
